Results are given in words; binding and its absence hold for the method and conditions named. Binding seen in cells or lysates may run through a third protein. Some results given as binding are weak or reduced against the parent protein; the word gives no strength.
Key:
[1] = target: ATM (ataxia telangiectasia mutated) kinase (human (endogenous in H9/WA09 hESCs)) (UniProt Q13315); experiment: co-IP; antibody (anti-53BP1, anti-ATM or IgG control) bound to protein A and protein G Dynabeads; hESC nuclear extract incubated with the beads 5 h at 4°C, washed with PBST, eluted with 0.1 M glycine pH 2.3; western blot
[2] = target: 53BP1 (p53 binding protein 1) (human (endogenous in H9/WA09 hESCs)) (UniProt Q12888); experiment: as above

By UniProt entry, the sequences of proteins in these tests, tags left out. Where a name states a change or a piece, a line headed by the entry shows the natural chain unless it says otherwise.
UniProt Q13315: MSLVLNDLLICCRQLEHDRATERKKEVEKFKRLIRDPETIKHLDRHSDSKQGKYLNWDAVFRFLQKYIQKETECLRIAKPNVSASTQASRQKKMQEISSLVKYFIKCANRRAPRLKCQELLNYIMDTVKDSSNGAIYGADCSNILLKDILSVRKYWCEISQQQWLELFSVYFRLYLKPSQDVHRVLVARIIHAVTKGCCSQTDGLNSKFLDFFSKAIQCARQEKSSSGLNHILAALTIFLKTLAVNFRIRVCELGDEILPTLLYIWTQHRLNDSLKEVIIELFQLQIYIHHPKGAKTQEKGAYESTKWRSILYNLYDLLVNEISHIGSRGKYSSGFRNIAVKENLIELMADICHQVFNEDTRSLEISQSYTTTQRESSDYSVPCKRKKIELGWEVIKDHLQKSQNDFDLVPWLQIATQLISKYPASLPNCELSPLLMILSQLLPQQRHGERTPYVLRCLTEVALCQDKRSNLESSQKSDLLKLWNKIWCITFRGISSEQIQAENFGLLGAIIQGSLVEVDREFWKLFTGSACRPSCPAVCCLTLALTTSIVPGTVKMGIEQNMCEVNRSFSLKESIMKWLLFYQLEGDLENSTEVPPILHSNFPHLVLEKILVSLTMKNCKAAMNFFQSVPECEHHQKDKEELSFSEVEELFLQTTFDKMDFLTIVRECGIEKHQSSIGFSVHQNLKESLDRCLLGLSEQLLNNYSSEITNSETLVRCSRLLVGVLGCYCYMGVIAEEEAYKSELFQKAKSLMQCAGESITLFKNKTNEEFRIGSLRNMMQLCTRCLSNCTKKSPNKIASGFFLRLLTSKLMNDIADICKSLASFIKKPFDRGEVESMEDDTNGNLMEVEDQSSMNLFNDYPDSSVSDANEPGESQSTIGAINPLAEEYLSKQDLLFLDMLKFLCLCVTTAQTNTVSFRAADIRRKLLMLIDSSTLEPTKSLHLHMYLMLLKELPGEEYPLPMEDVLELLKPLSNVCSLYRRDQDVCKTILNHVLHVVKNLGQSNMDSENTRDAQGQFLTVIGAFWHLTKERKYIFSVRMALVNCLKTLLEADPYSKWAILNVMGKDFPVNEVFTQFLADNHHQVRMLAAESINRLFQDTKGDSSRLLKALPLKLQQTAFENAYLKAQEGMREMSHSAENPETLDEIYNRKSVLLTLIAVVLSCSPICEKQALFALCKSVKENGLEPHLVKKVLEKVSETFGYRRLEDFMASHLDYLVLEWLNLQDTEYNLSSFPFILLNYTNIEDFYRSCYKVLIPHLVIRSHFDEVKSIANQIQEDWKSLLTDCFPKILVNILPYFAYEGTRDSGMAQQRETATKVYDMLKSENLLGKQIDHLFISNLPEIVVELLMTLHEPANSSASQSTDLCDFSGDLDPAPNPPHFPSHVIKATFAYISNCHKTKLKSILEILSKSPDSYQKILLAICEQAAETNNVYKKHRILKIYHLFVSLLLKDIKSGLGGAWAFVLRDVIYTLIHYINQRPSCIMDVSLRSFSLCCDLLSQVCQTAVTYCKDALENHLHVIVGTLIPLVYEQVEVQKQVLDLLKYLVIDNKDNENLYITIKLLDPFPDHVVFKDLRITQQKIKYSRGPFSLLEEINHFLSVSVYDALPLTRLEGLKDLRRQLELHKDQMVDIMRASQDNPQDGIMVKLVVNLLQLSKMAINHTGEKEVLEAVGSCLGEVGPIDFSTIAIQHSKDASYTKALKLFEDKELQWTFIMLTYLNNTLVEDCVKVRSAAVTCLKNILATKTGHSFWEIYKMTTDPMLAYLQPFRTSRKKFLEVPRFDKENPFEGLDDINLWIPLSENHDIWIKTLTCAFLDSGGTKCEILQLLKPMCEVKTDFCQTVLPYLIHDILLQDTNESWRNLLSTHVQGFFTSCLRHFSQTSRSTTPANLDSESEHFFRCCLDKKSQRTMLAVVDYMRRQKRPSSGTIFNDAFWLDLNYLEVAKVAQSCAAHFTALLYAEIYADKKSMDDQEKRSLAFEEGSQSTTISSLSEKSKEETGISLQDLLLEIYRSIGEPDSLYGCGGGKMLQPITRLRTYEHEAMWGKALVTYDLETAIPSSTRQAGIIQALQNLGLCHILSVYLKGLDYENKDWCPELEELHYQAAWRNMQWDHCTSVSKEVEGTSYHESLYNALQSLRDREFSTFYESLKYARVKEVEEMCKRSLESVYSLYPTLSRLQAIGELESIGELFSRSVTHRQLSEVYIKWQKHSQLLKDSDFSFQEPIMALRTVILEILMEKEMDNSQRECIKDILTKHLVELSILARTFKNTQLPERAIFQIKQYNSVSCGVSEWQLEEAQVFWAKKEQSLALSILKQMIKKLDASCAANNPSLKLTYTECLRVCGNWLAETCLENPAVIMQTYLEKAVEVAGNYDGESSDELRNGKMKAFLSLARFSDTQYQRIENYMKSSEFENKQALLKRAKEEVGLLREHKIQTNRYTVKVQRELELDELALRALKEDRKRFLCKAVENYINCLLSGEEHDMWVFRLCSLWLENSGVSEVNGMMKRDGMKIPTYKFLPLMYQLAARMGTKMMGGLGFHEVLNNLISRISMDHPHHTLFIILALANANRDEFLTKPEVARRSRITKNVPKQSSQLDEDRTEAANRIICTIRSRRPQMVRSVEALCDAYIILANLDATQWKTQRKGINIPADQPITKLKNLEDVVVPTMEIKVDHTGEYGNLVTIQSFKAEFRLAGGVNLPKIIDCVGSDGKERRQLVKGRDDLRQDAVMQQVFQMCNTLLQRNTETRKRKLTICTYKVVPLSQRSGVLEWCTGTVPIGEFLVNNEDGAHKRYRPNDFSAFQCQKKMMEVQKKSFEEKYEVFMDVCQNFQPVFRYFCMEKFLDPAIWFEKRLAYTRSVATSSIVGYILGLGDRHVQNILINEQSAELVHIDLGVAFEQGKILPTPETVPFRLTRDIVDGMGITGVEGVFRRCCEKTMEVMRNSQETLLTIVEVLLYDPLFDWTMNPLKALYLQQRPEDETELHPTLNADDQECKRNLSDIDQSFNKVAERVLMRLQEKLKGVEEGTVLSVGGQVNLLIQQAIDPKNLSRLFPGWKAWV
UniProt Q12888: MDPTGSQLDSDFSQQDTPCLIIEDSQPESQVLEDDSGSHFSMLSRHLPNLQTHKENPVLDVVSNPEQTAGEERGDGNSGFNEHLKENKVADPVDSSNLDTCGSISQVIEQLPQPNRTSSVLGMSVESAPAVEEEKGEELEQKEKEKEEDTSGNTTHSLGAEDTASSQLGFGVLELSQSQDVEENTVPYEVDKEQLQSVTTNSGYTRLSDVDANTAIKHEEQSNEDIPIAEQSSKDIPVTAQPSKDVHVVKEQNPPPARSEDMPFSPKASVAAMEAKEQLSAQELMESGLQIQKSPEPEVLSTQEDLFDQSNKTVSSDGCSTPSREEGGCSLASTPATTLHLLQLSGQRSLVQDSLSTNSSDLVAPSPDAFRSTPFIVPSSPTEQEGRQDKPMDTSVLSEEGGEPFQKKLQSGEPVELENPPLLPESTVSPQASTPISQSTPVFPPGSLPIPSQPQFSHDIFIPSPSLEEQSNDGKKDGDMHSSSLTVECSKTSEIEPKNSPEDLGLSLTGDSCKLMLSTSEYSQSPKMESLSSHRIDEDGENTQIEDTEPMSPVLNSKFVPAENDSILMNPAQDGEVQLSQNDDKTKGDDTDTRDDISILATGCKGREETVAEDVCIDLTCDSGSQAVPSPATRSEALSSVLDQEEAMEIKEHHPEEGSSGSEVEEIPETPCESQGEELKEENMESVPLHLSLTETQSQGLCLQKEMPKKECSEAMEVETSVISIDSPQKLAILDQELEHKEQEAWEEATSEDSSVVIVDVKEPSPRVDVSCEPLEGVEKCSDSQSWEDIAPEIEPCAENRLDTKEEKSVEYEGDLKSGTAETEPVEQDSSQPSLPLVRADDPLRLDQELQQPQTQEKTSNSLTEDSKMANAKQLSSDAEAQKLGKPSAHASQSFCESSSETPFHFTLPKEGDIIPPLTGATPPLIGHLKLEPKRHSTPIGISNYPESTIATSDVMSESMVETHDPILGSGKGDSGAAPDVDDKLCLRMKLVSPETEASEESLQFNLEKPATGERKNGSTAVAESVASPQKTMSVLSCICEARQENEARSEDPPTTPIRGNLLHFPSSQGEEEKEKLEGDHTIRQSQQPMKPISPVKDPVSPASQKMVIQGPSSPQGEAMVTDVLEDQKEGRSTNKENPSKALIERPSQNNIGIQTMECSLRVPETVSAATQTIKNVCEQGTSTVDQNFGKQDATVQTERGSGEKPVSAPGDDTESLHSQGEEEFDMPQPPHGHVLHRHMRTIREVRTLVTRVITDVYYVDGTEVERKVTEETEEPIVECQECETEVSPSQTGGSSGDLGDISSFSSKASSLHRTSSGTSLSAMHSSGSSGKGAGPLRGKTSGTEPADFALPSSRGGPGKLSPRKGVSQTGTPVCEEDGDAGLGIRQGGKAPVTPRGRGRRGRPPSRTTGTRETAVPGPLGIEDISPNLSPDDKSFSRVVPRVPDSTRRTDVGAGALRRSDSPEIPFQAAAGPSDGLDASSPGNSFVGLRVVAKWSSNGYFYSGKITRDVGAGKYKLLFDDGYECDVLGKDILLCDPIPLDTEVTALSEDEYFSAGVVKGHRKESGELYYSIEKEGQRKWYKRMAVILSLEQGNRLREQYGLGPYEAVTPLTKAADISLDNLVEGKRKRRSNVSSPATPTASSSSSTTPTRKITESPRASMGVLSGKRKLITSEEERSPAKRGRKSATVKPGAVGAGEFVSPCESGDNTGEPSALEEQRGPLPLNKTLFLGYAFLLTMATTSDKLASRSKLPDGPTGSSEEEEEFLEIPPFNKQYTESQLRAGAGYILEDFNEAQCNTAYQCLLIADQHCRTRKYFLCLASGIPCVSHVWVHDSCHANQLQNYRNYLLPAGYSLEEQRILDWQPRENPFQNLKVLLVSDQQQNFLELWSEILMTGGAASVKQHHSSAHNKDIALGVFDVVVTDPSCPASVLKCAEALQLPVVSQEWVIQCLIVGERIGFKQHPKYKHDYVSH
UniProt Q15022: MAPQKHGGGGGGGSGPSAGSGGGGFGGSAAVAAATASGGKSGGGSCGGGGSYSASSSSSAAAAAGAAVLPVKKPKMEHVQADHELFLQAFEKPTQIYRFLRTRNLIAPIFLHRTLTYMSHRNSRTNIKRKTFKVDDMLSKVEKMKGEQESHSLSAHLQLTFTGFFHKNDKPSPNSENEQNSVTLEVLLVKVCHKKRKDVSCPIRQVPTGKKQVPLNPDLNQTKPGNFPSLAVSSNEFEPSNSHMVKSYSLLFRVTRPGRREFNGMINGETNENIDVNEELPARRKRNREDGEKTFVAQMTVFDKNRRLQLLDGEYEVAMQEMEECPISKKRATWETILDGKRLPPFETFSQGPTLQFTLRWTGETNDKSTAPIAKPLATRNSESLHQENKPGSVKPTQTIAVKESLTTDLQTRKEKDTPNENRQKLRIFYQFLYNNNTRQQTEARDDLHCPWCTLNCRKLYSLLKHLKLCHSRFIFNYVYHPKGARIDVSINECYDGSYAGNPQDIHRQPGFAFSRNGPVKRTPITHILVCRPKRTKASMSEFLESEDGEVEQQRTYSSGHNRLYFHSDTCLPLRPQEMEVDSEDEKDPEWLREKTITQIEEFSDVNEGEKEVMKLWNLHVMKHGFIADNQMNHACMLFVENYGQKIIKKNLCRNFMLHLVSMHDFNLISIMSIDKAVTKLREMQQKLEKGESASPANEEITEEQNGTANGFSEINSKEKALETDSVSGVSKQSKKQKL

Row | Substance | binding [1] | binding [2]
1 | 53BP1 (p53 binding protein 1) (from UniProt Q12888 1-1972) | binds | 
2 | SUZ12 (a core subunit of PRC2) (from UniProt Q15022 1-739) | no binding | no binding

From article PMC11398655
